# Measurements taken from article PMC5996148.
# Values joined by “and” are separate entries in the source; they are usually repeats but may differ in a detail not shown here. Identical values can stand only once. The list shows a part of the results.
# Key:
# Test in all cases: protein microarray (ProtoArray v5.0), streptavidin-Alexa Fluor 647
# Conditions in all cases: 3'-biotin; 20 mM Tris (pH 7.5), 5 mM MgCl2, 100 mM KCl, 0.1% Tween-20, A/T-rich and random oligonucleotide blockers; temperature not stated; high values mean tight binding
# [1] = test system: Coiled-coil domain-containing protein 115 (human)
# [2] = test system: Coiled-coil domain-containing protein 28A (human)
# [3] = test system: Coiled-coil domain-containing transmembrane protein C7orf53 (human)
# [4] = test system: Copper chaperone for superoxide dismutase (human)
# Cyclin-Y (human) = test system: Cyclin-Y (human)
# [5] = test system: Cyclin-dependent kinase-like 3 (human)
# [6] = test system: Cystathionine beta-synthase (human)
# [7] = test system: Cysteine dioxygenase type 1 (human)
# [8] = test system: Cytochrome b-c1 complex subunit 6, mitochondrial (human)
# Cytoglobin (human) = test system: Cytoglobin (human)
sequence,measurement,setting,value
GGTGACAGGGGTATGGGGAGGGG [G4-2 biotinylated (Ct1)],binding signal,[1],-0.386 z-score
same,binding signal,[2],6.78 z-score
same,binding signal,[3],-0.377 z-score
same,binding signal,[4],-0.384 z-score
same,binding signal,Cyclin-Y (human),-0.39 z-score
same,binding signal,[5],6.29 z-score
same,binding signal,[6],-0.4 z-score
same,binding signal,[7],-0.37 z-score and -0.383 z-score
same,binding signal,[8],-0.381 z-score
same,binding signal,Cytoglobin (human),-0.397 z-score
